Assay results: paper PMC4800795
These are yes or no findings as the source states them, for the method shown. Binding seen in cells or lysates may run through a third protein. Some binding calls cover weakened binding; strength is not graded here. For part of these data: Sequences can lack the tags named with a protein.

Amino acid sequences for entries named in this document (tags omitted).
UniProt Q9UNN5: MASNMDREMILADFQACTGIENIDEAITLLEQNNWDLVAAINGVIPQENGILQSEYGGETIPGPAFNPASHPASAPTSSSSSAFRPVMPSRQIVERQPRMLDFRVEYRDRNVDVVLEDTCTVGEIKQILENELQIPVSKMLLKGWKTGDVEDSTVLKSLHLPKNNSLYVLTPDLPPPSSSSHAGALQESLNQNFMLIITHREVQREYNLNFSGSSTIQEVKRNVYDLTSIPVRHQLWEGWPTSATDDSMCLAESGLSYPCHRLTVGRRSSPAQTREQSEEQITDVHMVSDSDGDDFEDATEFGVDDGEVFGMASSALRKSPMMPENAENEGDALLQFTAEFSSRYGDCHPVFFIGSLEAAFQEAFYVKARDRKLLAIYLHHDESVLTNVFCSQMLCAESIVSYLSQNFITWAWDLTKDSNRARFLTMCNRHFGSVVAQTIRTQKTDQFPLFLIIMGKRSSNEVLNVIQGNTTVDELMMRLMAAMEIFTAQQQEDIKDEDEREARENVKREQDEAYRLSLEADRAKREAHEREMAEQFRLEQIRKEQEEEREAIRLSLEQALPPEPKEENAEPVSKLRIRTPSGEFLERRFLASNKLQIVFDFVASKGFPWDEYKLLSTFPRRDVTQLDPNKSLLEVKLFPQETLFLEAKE

Columns and labels:
[1] = molecular target: T1, IPO5/importin-β3, endogenous in HEK293T cells (human (endogenous in HEK293T)) (UniProt O00410); assay: co-IP; competition: anti-GFP immunoprecipitation from HEK293T cells cotransfected for 30 h with IRF3-5D-GFP and Flag-FAF1 or a control plasmid; Western blot
T1 sequence: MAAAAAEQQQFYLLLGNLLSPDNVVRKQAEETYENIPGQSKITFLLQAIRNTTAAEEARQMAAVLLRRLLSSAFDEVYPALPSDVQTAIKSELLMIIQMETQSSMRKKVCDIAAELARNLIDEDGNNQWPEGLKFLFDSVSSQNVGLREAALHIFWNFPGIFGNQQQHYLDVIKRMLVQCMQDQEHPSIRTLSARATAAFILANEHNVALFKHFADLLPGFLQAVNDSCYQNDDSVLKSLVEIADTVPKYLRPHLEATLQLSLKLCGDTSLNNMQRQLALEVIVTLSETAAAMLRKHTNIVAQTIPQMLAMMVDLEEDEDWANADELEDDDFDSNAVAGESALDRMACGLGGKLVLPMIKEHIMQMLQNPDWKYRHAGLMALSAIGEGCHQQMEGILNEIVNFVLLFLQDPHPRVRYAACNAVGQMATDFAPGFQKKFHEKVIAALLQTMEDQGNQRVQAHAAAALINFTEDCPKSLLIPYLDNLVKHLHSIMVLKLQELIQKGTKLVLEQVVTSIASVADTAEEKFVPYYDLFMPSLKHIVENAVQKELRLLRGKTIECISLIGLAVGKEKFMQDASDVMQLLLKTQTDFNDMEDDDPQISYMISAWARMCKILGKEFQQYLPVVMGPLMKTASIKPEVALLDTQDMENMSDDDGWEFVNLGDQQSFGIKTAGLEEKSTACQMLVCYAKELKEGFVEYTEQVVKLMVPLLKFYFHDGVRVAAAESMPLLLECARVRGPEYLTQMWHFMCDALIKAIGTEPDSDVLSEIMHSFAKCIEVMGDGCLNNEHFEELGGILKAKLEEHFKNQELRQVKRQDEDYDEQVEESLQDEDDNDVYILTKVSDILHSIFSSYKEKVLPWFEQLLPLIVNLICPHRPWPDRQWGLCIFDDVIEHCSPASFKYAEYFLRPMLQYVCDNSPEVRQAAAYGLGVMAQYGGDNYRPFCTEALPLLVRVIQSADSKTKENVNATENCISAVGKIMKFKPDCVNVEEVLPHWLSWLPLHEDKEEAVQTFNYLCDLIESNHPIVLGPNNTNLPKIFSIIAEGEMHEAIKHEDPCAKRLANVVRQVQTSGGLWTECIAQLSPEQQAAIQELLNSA

[2] = molecular target: Flag-FAF1 (Fas-associated factor 1, wild type), in HeLa cells (human) (UniProt Q9UNN5); assay: co-IP; anti-Flag immunoprecipitation from HeLa cells transfected with Flag or Flag-FAF1, untreated or poly(I·C) 10 μg/ml for 6 h; lysis buffer 150 mM NaCl, 50 mM Tris-HCl pH 7.4, 1 mM EDTA, 1% CHAPS; Western blot
[3] = molecular target: T2, GFP-tagged wild-type IRF3 (IRF3-WT-GFP), in HEK293T cells (UniProt Q14653); assay: co-IP; anti-GFP immunoprecipitation from HEK293T cells transfected for 30 h with IRF3-WT-GFP or IRF3-5D-GFP, with or without Flag-RIG-I N; lysis buffer 150 mM NaCl, 50 mM Tris-HCl pH 7.4, 1 mM EDTA, 1% CHAPS; Western blot
T2 sequence: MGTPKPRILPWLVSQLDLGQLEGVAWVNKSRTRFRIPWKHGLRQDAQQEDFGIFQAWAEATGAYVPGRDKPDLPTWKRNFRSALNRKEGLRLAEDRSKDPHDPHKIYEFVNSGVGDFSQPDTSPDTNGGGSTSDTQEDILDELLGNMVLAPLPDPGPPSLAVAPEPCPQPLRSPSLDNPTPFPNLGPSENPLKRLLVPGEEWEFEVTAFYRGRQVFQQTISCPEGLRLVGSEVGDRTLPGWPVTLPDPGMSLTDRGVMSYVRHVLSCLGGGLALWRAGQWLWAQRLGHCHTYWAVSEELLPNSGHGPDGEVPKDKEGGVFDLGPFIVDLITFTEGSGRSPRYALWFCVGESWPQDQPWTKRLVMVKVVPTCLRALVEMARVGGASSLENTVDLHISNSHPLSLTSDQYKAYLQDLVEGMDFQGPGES

Flag-FAF1 (Fas-associated factor 1, wild type), in HEK293T cells (from UniProt Q9UNN5 1-650)
binding [1]: binds

B1: IPO5/importin-β3, endogenous in HeLa cells (protein, UniProt O00410 1-1097)
chain: T1 sequence
binding [2]: binds

B2: IPO5/importin-β3, endogenous in HEK293T cells (protein, UniProt O00410 1-1097)
chain: T1 sequence
binding [3]: binds
